PubChem BioAssay AID540275 (National Center for Advancing Translational Sciences (NCATS), 2011)
The whole screen tested about 320,000 compounds, of which about 620 (0.19%) were called active. The shares of active, inactive and inconclusive entries below differ from those in the screen. Cut-off read from the data, not from the text of the source: active = activation above about 80%; inconclusive = between about 30% and that limit; inactive = weaker than that.
Note: 0% is about no effect.

The chains behind the UniProt entries cited, without tags or fusion partners.
UniProt Q8NER1, whole entry, looked up: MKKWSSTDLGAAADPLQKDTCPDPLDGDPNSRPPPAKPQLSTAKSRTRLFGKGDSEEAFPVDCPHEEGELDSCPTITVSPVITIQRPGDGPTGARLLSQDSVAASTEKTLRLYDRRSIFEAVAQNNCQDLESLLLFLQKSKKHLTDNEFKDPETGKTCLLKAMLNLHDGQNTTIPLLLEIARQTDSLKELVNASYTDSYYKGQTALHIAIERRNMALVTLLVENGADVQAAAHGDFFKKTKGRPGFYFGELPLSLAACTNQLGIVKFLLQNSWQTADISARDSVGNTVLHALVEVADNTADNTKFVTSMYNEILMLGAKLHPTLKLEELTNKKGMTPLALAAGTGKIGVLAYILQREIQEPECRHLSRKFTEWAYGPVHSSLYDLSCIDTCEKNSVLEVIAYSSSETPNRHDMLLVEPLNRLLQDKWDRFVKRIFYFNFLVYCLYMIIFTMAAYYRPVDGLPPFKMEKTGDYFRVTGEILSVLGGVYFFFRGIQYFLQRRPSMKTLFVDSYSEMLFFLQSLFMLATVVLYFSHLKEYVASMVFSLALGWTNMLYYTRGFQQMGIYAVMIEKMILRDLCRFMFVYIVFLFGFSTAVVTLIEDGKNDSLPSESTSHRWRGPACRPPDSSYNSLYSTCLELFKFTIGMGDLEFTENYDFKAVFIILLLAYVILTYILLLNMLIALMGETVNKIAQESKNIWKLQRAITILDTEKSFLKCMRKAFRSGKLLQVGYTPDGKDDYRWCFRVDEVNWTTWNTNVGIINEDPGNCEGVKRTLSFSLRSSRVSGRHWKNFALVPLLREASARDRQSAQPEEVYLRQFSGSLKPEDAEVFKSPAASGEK

What follows are molecules tested against Transient receptor potential cation channel subfamily V member 1 (Homo sapiens) (UniProt Q8NER1) (assay: HTS Assay for Compounds that Act as Agonists of the Vanilloid Receptor 1). Settings: TRPV1-expressing cells, Fluo-8 calcium influx, agonist mode; at 8.33 µM, active compounds read high.
Procedure, shortened: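 Cells expressing TRPV1 were dye-loaded with Fluo-8 and read kinetically: 10 s baseline, 3 min after compound (agonist portion), then 2 min after EC20 capsaicin (allosteric enhancer portion). Calcium-bound dye fluorescence at 480/520 nm.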
Cc1ccc(NC(=O)c2ccc3c(c2)N(CC(=O)NC(C)C)C(=O)C(C)(C)O3)cc1 was tested, and the activation was inconclusive: 48.6%.
O=C(CSc1ccncc1)Nc1ccc2ccccc2c1 was tested, and the activation was inconclusive: 61.8%.
With O=C(NN=C1CCCCC1)NC1CCCCC1 the activation was inactive: -1.61%.
For Cc1cccc(N(C(=O)CCC(=O)Nc2cc(C)on2)C(C(=O)NC2CCCC2)c2ccccc2)c1 (configuration not stated), the activation was inconclusive: 35.7%.
With NC(=O)COC(=O)c1ccc(Cl)c(S(=O)(=O)N(Cc2ccccc2)c2ccc(Cl)cc2)c1 the activation was inconclusive: 39.2%.
CCCOc1cccc(OCCSc2nc(C)cc(=O)[nH]2)c1 was tested, and the activation was active: 81.6%.
For Cn1c(=O)c2c(SCc3ccccn3)nc(CC(C)(C)C)nc2n(C)c1=O, the activation was inconclusive: 38.3%.
In the case of COc1cccc(/C=N/n2c(-c3ccco3)nc3ccccc3c2=O)c1, the activation is reported as inconclusive: 66.3%.
In the case of COc1ccc(CNC(=O)c2ccc3ccccc3n2)cc1OC, the activation is reported as inconclusive: 51.1%.
In the case of CCN1c2ccccc2-c2nc3ccccc3n2C1c1cccnc1 (configuration not stated), the activation is reported as inconclusive: 60.9%.
With COc1ccc(C(C)NC(=O)c2ccc(Br)cc2)cc1OC (configuration not stated) the activation was inconclusive: 42.1%.
For Cc1[nH][nH]c(=O)c1C(c1ccc(-c2ccc(F)cc2)o1)c1c(C)[nH][nH]c1=O, the activation was inactive: 1.63%.
COc1ccc(N2CCN(c3nc4ccccc4n3CC(=O)c3ccccc3)CC2)cc1 was tested, and the activation was inactive: 5.84%.
With O=c1c2cnn(-c3ccc(F)cc3)c2ncn1Cc1ccccn1 the activation was inconclusive: 62.4%.
In the case of CCn1cc([N+](=O)[O-])c(C(=O)Nc2ccn(Cc3ccccc3)n2)n1, the activation is reported as inactive: -0.583%.
With O=C(NCc1ccc(F)cc1)c1cccnc1 the activation was inconclusive: 41.1%.
With CCOc1ccc(CN(C)Cc2cc(=O)oc3cc(C)c(Cl)cc23)cc1 the activation was inconclusive: 31.8%.
For O=C(CCN1CCC(c2ccccc2)C1)c1ccc2c(c1)OCCO2 (configuration not stated), the activation was inactive: 3.3%.
For S=C(NCCc1ccc(Cl)cc1)NCc1ccccc1, the activation was inconclusive: 68.8%.
With Cc1sc2nc(CN3CCCCC3)nc(Nc3ccc4c(c3)OCCO4)c2c1C the activation was inconclusive: 45.4%.
O=C(NCc1cccnc1)c1ccc(COc2ccccc2Cl)cc1 was tested, and the activation was inconclusive: 54.8%.
For CC(C)c1ccc(C2CC(=O)c3cnc(NC(=O)c4ccco4)nc3C2)cc1 (configuration not stated), the activation was inconclusive: 31.3%.
In the case of COc1ccc(OC)c(NC(=O)NCCN2CCN(c3ccccc3)CC2)c1, the activation is reported as inactive: 0.0561%.
C/C(=N/OC(=O)c1cccc(Cl)c1)c1nccs1 was tested, and the activation was inconclusive: 34.3%.
For O=C(NCCSc1ncc(-c2ccc(F)cc2)[nH]1)c1ccc2c(c1)OCO2, the activation was inconclusive: 31.1%.
For Cc1cccc(OCC(=O)Nc2ccc3c(c2)C(=O)NC3=O)c1, the activation was inconclusive: 74.9%.
With CCN(C(=O)COC(=O)C12CC3CC(CC(NC(C)=O)(C3)C1)C2)C1CCCCC1 the activation was inconclusive: 68.1%.
In the case of Cc1ccc(CNC(=O)CCCc2c[nH]c3ccccc23)cc1, the activation is reported as inconclusive: 70.8%.
For O=C(c1ccc(COc2ccc(Cl)cc2)o1)N1N=C(C(F)F)CC1(O)C(F)F (configuration not stated), the activation was inactive: -2.09%.
O=C(NOCc1ccccc1)c1ccc(Cl)cc1 was tested, and the activation was inconclusive: 43.6%.
With O=C(CSc1nnc(-c2ccccc2Br)o1)N1CCOCC1 the activation was inconclusive: 51%.
CC1=NN(C(=O)COc2ccc(C)c(C)c2)C(O)(c2ccccc2)C1 (configuration not stated) was tested, and the activation was inactive: 5.45%.
For CCC(C)(C)NC(=O)CCCSc1nc2ccccc2s1, the activation was inconclusive: 57.6%.
In the case of COc1cc(CCC(=O)Nc2ccc(Cl)c(C(F)(F)F)c2)cc(OC)c1OC, the activation is reported as inactive: -1.31%.
In the case of COC(=O)c1sccc1NC(=O)Nc1cccc(Cl)c1Cl, the activation is reported as inconclusive: 31.1%.
CCOC(=O)C1=C(c2ccccc2)NC(N)=NC1c1ccc(OCc2ccc(C(=O)OC)cc2)cc1 (configuration not stated) was tested, and the activation was inconclusive: 47.1%.
With Cc1[nH]nc2c1-c1nc3ccccc3nc1C(C)(C)C2 the activation was inconclusive: 31%.
With O=C(/C=C/c1cccc(Cl)c1)c1ccc([N+](=O)[O-])o1 the activation was inconclusive: 58.3%.
With CCCn1c(=O)c(C(=O)NNS(=O)(=O)c2ccc(C)cc2)c(O)c2ccccc21 the activation was inconclusive: 32.9%.
With Cn1c(NCCc2ccccc2)cc(=O)n(C)c1=O the activation was inactive: 4.01%.
With COc1ccc(CN(C(=O)c2ccco2)c2ccc(C)cc2)cc1OC the activation was inconclusive: 57.2%.
In the case of Clc1ccc2nc(-c3ccc(Br)s3)cn2c1, the activation is reported as inconclusive: 30.6%.
In the case of Cc1ccc(SCc2cn3c(C)csc3n2)cc1, the activation is reported as inconclusive: 61%.
For CCOc1ccccc1-c1nc(C(N)=O)c2[nH]c(=O)n(-c3ccc(F)cc3)c2n1, the activation was inactive: -0.068%.
With O=C(CCN1CCN(c2ccccc2F)CC1)Nc1ccccc1F the activation was inconclusive: 39.3%.
Cc1ccc(C2=CC(=O)C[C@H](c3ccc4c(c3)OCO4)C2)cc1 was tested, and the activation was inconclusive: 56.3%.
CCCCNC(=O)c1cc2ccccc2s1 was tested, and the activation was inconclusive: 46.1%.
